Taken from: PubChem BioAssay AID504793 (Drosophila RNAi Screening Center, 2011)
Test: 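Knock-downs allowing continued mitosis even though DNA is damaged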 (primary screen). Cells: Drosophila S2R+ cells. Reagents: long dsRNA against Drosophila genes, about 0.25 µg dsRNA per well. Timing: 4 days of dsRNA, then 4 hours of drug before read-out. Conditions: doxorubicin 0.5 µM for 4 hours to cause double-strand breaks, in cells also given a low, harmless dose of dsRNA against nbs to sensitise the assay. Read-out: 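Per-well count of mitotic cells stained for phospho-histone H3 after doxorubicin exposure, used as mitotic index; counts are raw and not normalised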. Direction: mitotic cells: higher = more cells in mitosis, weaker G2 arrest. Call rule: 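a call needs confirmation in secondary tests, with other dsRNAs and a check of mitotic timing without damage, not just a high primary count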. Meaning of the calls: active = confirmed in follow-up tests; inactive = not confirmed.
The deposit covers about 23,000 reagents; shown is an unselected part of those that have a named target and a result. Of all reagents, 62 (0.27%) were called active. 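Calls come from follow-up tests whose scores are not deposited, so confirmed genes may have low counts here; counts are not normalised per plate.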 Raw values are not corrected between plates. Reagents against one gene are numbered here. A plus sign joins genes that one reagent is predicted to hit. Reagent sequences are not shown.

| gene knocked down | reagent no. | mitotic cells, replicate 1 | mitotic cells, replicate 2 | call |
| --- | --- | --- | --- | --- |
| CG10283 | 1 | 2 | – | inactive |
| CG10283 | 2 | 9 | – | inactive |
| CG4982 | 1 | 4 | – | inactive |
| His3:CG33818 + His3:CG33857 + His3:CG33806 + 20 more | 1 | 5 | – | inactive |
| CG32095 | 1 | 6 | – | inactive |
| CG43894 | 1 | 2 | – | inactive |
| CG43894 | 2 | 8 | – | inactive |
| srp | 1 | 16 | – | inactive |
| srp | 2 | 6 | – | inactive |
| CG30340 | 1 | 6 | – | inactive |
| CG14712 | 1 | 9 | – | inactive |
| CG9130 + CG9133 | 1 | 8 | – | inactive |
| CG9130 + CG9133 | 2 | 8 | – | inactive |
| CG9130 + CG9133 | 3 | 8 | – | inactive |
| CG9130 + CG9133 | 4 | 10 | – | inactive |
| AsnRS | 1 | 2 | – | inactive |
| UQCR-Q | 1 | 9 | – | inactive |
| ReepB | 1 | 5 | – | inactive |
| ReepB | 2 | 6 | – | inactive |
| Con | 1 | 5 | – | inactive |
| CG6420 | 1 | 15 | – | inactive |
| MFS16 | 1 | 4 | – | inactive |
| MFS16 | 2 | 7 | – | inactive |
| Tapdelta | 1 | 7 | – | inactive |
| CG13474 | 1 | 5 | – | inactive |
| CG11396 | 1 | 5 | – | inactive |
| CG33282 | 1 | 4 | – | inactive |
| CG14435 | 1 | 7 | – | inactive |
| CG32281 | 1 | 5 | – | inactive |
| CG3294 | 1 | 5 | – | inactive |
| CG3294 | 2 | 7 | – | inactive |
| thetaTry | 1 | 5 | – | inactive |
| thetaTry | 2 | 8 | – | inactive |
| CG12056 | 1 | 13 | – | inactive |
| CG8508 | 1 | 4 | – | inactive |
| Fip1 | 1 | 4 | – | inactive |
| osi | 1 | 8 | 13 | inactive |
| cup | 1 | 10 | – | inactive |
| cup | 2 | 10 | – | inactive |
| dpa | 1 | 8 | – | inactive |
| Mccc1 | 1 | 9 | – | inactive |
| Mccc1 | 2 | 6 | – | inactive |
| Tsp42Ef | 1 | 6 | – | inactive |
| cerv | 1 | 6 | – | inactive |
| cerv | 2 | 4 | – | inactive |
| Sh | 1 | 28 | – | inactive |
| Sh | 2 | 5 | – | inactive |
| Sh | 3 | 15 | – | inactive |
| Sh | 4 | 7 | – | inactive |
| Sh | 5 | 4 | – | inactive |
| Dnaaf4 | 1 | 4 | – | inactive |
| otk2 | 1 | 6 | – | inactive |
| SCAP | 1 | 3 | – | inactive |
| SCAP | 2 | 3 | – | inactive |
| Cpr50Cb | 1 | 8 | – | inactive |
| Cpr50Cb | 2 | 5 | – | inactive |
| CG43163 | 1 | 7 | – | inactive |
| CG43163 | 2 | 3 | – | inactive |
| CG43163 | 3 | 4 | – | inactive |
| fkh | 1 | 10 | – | inactive |
| fkh | 2 | 3 | – | inactive |
| asrij | 1 | 2 | – | inactive |
| Cpr65Av | 1 | 5 | – | inactive |
| Cpr65Av | 2 | 3 | – | inactive |
| SA2 | 1 | 7 | – | inactive |
| RhoGEF64C | 1 | 5 | – | inactive |
| RhoGEF64C | 2 | 4 | – | inactive |
| RhoGEF64C | 3 | 8 | – | inactive |
| Su(var)3-3 | 1 | 10 | – | inactive |
| Su(var)3-3 | 2 | 3 | – | inactive |
| Jupiter | 1 | 10 | – | inactive |
| Jupiter | 2 | 6 | – | inactive |
| Jupiter | 3 | 6 | – | inactive |
| CG30495 | 1 | 7 | – | inactive |
| CG30495 | 2 | 8 | – | inactive |
| CG8476 | 1 | 7 | – | inactive |
| CG8476 | 2 | 8 | – | inactive |
| CG3124 | 1 | 6 | – | inactive |
| CG3124 | 2 | 3 | – | inactive |
| CG14356 | 1 | 5 | – | inactive |
| zetaCOP | 1 | 13 | – | inactive |
| Ufd4 | 1 | 6 | – | inactive |
| Try29F | 1 | 2 | – | inactive |
| Try29F | 2 | 8 | – | inactive |
| CG42369 | 1 | – | – | inactive |
| RabX5 | 1 | 10 | – | inactive |
| RabX5 | 2 | 8 | – | inactive |
| Upf1 | 1 | 8 | – | inactive |
| CG31898 | 1 | 7 | – | inactive |
| CG16894 | 1 | 15 | – | inactive |
| CG16894 | 2 | 8 | – | inactive |
| tun | 1 | 7 | – | inactive |
| tun | 2 | 4 | – | inactive |
| CG10467 | 1 | 3 | – | inactive |
| BckdhA | 1 | 4 | – | inactive |
| CG6204 | 1 | 6 | – | inactive |
| Cyp4d20 | 1 | 6 | – | inactive |
| Cyp4d20 | 2 | 1 | – | inactive |
| jeb | 1 | 7 | – | inactive |
| jeb | 2 | 3 | – | inactive |
| jeb | 3 | 1 | – | inactive |
| CG30471 | 1 | 5 | – | inactive |
| Capr | 1 | 6 | – | inactive |
| Capr | 2 | 9 | – | inactive |
| tal-1A + tal-2A + tal-AA + 1 more | 1 | 10 | – | inactive |
| unc-5 | 1 | 6 | 5 | inactive |
| unc-5 | 2 | 5 | – | inactive |
| unc-5 | 3 | 3 | – | inactive |
| Tsp42Er | 1 | 6 | – | inactive |
| Mpc1 | 1 | 6 | – | inactive |

Sorted by “mitotic cells, replicate 1” (low to high): 14 of the entries above.
| gene knocked down | reagent no. | mitotic cells, replicate 1 | mitotic cells, replicate 2 | call |
| --- | --- | --- | --- | --- |
| Try29F | 1 | 2 | – | inactive |
| CG3124 | 2 | 3 | – | inactive |
| CG14356 | 1 | 5 | – | inactive |
| Jupiter | 2 | 6 | – | inactive |
| Jupiter | 3 | 6 | – | inactive |
| CG3124 | 1 | 6 | – | inactive |
| Ufd4 | 1 | 6 | – | inactive |
| CG30495 | 1 | 7 | – | inactive |
| CG8476 | 1 | 7 | – | inactive |
| CG30495 | 2 | 8 | – | inactive |
| CG8476 | 2 | 8 | – | inactive |
| Try29F | 2 | 8 | – | inactive |
| Jupiter | 1 | 10 | – | inactive |
| zetaCOP | 1 | 13 | – | inactive |
